# Laboratory results published in the supplement of paper PMC10032668.
# By UniProt entry, the sequences of proteins in these tests, tags left out.
# EIF2S2, P20042, UniProt P20042, whole entry: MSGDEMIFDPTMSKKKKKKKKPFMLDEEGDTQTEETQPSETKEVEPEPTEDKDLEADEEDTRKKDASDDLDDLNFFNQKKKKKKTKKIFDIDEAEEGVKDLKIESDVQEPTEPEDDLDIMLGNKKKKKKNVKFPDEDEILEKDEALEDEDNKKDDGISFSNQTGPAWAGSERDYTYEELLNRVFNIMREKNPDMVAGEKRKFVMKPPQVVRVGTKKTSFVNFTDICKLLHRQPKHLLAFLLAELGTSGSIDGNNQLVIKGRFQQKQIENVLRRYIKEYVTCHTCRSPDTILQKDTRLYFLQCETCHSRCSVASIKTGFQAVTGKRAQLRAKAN
# MORF4L2, Q15014, UniProt Q15014, whole entry: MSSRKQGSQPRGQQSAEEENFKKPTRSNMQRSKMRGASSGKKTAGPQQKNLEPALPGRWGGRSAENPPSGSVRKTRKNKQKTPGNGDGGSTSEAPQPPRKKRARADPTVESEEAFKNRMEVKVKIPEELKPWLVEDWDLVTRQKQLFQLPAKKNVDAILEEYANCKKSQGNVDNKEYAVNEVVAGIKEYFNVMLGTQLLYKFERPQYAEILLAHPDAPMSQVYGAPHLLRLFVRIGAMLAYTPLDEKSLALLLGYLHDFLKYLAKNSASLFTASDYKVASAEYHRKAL
# PABPC4, Q13310, UniProt Q13310, whole entry: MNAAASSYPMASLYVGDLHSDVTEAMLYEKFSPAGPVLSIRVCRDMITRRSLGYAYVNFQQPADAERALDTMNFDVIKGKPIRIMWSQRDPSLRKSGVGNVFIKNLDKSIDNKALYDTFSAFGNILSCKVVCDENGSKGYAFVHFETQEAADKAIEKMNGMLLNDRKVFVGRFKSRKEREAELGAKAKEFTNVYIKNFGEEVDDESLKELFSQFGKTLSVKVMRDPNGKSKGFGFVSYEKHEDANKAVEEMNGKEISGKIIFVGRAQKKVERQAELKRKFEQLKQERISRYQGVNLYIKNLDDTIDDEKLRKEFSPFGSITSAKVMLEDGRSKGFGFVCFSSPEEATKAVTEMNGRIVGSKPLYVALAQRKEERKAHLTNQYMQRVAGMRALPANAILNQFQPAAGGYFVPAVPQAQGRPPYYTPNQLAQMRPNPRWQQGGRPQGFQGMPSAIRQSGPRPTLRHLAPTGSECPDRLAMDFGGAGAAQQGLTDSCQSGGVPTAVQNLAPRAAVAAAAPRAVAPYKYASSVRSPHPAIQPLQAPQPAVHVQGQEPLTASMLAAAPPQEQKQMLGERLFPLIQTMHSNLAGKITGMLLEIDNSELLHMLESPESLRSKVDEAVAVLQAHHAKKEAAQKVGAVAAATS
# POM121C, A8CG34, UniProt A8CG34, whole entry: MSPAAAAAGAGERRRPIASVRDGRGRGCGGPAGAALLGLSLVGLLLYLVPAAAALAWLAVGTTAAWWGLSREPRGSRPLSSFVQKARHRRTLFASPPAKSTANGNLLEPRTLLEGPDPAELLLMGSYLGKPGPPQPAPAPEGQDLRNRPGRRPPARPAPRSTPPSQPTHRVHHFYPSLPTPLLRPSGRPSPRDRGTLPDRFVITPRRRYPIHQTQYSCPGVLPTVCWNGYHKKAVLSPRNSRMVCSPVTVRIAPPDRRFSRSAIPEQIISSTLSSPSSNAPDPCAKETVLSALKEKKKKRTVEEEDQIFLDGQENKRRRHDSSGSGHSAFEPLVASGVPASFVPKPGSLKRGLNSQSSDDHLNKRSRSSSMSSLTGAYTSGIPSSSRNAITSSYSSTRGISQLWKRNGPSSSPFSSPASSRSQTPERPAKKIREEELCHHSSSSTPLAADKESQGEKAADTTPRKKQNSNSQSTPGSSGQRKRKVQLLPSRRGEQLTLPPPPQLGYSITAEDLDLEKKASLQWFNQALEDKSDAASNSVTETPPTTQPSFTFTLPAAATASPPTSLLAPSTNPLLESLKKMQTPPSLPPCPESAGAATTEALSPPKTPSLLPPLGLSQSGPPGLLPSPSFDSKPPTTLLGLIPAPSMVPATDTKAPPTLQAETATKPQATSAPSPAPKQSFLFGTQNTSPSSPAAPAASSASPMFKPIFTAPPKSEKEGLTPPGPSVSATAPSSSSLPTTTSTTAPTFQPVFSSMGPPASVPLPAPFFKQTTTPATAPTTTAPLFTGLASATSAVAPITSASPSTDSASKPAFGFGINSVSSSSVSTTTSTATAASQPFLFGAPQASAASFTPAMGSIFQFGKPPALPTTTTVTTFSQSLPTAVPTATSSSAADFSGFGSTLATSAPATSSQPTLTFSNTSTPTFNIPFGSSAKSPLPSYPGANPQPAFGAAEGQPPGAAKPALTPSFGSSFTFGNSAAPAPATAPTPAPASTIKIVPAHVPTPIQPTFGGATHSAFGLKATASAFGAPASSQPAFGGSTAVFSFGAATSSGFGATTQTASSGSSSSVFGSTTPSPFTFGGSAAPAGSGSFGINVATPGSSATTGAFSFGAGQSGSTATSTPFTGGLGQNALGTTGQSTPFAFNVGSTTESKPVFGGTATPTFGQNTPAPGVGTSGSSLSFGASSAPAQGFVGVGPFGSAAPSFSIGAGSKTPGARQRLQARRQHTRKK
# SRPK1, Q96SB4, UniProt Q96SB4, whole entry: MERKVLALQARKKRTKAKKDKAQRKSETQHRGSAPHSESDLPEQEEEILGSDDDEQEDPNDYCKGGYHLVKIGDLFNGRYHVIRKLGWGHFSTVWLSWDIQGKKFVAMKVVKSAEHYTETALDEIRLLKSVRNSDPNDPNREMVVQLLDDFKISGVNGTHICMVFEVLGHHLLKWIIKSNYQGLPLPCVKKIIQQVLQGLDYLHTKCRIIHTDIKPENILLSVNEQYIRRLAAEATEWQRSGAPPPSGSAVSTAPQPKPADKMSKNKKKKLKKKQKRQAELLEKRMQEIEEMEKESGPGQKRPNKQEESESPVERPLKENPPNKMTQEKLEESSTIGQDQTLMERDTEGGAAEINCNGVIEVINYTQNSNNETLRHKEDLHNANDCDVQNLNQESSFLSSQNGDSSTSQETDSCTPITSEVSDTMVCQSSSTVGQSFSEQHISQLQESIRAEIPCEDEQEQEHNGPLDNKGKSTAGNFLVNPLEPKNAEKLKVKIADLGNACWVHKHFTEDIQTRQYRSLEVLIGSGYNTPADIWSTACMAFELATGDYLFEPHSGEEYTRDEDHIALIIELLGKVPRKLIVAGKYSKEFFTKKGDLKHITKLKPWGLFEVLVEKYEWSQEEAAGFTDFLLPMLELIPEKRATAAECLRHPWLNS
# NELFE, P18615, UniProt P18615, whole entry: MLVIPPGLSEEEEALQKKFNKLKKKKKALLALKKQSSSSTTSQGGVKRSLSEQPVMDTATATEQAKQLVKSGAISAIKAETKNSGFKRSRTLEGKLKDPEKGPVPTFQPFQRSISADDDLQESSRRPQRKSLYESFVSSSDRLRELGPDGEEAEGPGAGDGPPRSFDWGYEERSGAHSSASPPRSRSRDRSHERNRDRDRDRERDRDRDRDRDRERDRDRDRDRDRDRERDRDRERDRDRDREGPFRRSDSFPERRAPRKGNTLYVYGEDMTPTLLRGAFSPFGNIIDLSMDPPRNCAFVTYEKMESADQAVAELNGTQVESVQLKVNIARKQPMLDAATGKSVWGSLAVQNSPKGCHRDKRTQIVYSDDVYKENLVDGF
# The other results are listed elsewhere or left out. Only hits are listed; about a third recur on repeated control peptides.
# Legend:
# Assay in all cases: PRISMA enrichment of interactor (LFQ) in peptide spot vs all other peptide spots (log2 fold change); higher = stronger / more specific binding of the interactor to the peptide
# [1] = biological target: AHCTF1, Q8WYP5
# Method: (§1)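 PRISMA: 15-aa overlapping tiles (offset 8 aa) of 60 microproteins, plus SOS1/GLUT1 control peptides, were spot-synthesized on cellulose membranes in triplicate. Membranes were incubated with benzonase-treated HEK293T lysate, and bound proteins were identified by LC-MS/MS with LFQ. Enrichment is the log2 fold change of each protein in one spot versus all other spots. Only interactors passing the significance cutoff are listed.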
# [2] = biological target: C19orf53, Q9UNZ5
# Method: as §1
# [3] = biological target: CBSL
# Method: as §1
# [4] = biological target: CDK11A, Q9UQ88
# Method: as §1
# [5] = biological target: CDKN2AIP, Q9NXV6
# Method: as §1
# [6] = biological target: CGN, Q9P2M7
# Method: as §1
# [7] = biological target: CHCHD3, Q9NX63
# Method: as §1
# [8] = biological target: CKAP4, Q07065
# Method: as §1
# [9] = biological target: CNN3, Q15417
# Method: as §1
# [10] = biological target: CSTF3, Q12996
# Method: as §1
# [11] = biological target: DDX1, Q92499
# Method: as §1
# [12] = biological target: EIF2S2, P20042
# Method: as §1
# [13] = biological target: FIS1, Q9Y3D6
# Method: as §1
# [14] = biological target: FUBP3, Q96I24
# Method: as §1
# [15] = biological target: HNRNPL, P14866
# Method: as §1
# [16] = biological target: HP1BP3, Q5SSJ5
# Method: as §1
# [17] = biological target: ILF3, Q12906
# Method: as §1
# [18] = biological target: LMNB1, P20700
# Method: as §1
# [19] = biological target: MCRIP2, Q9BUT9
# Method: as §1
# [20] = biological target: MORF4L2, Q15014
# Method: as §1
# [21] = biological target: MTCH2, Q9Y6C9
# Method: as §1
# [22] = biological target: MXRA7, P84157
# Method: as §1
# [23] = biological target: NOM1, Q5C9Z4
# Method: as §1
# [24] = biological target: PABPC4, Q13310
# Method: as §1
# [25] = biological target: PCID2, Q5JVF3
# Method: as §1
# [26] = biological target: POM121C, A8CG34
# Method: as §1
# [27] = biological target: PRRC2A, P48634
# Method: as §1
# [28] = biological target: PTOV1, Q86YD1
# Method: as §1
# [29] = biological target: RBM15, Q96T37
# Method: as §1
# [30] = biological target: RBMS1, P29558
# Method: as §1
# [31] = biological target: RPL10A, P62906
# Method: as §1
# [32] = biological target: SNX27, Q96L92
# Method: as §1
# [33] = biological target: SRPK1, Q96SB4
# Method: as §1
# [34] = biological target: THUMPD1, Q9NXG2
# Method: as §1
# [35] = biological target: TSR1, Q2NL82
# Method: as §1
# [36] = biological target: UBAP2, Q5T6F2
# Method: as §1
# [37] = biological target: XRN2, Q9H0D6
# Method: as §1
# [38] = biological target: YTHDF2, Q9Y5A9
# Method: as §1
# [39] = biological target: ALYREF, Q86V81
# Method: as §1
# [40] = biological target: BHMT, Q93088
# Method: as §1
# [41] = biological target: CSDE1, O75534
# Method: as §1
# [42] = biological target: EIF2D, P41214
# Method: as §1
# [43] = biological target: GATA6, Q92908
# Method: as §1
# [44] = biological target: NELFE, P18615
# Method: as §1
# [45] = biological target: NOP58, Q9Y2X3
# Method: as §1
# [46] = biological target: NTMT1, Q9BV86
# Method: as §1
# [47] = biological target: NUP85, Q9BW27
# Method: as §1
# [48] = biological target: PNO1, Q9NRX1
# Method: as §1
# [49] = biological target: PSPC1, Q8WXF1
# Method: as §1
# [50] = biological target: PTGES3, Q15185
# Method: as §1
# [51] = biological target: TCAF1, Q9Y4C2
# Method: as §1
binder,measurement,setting,value
SPADVAGPGLAMEKA,PRISMA enrichment of interactor (log2),[1],5.56
same,PRISMA enrichment of interactor (log2),[2],5.8
same,PRISMA enrichment of interactor (log2),[3],4.14
same,PRISMA enrichment of interactor (log2),[4],5.79
same,PRISMA enrichment of interactor (log2),[5],4.07
same,PRISMA enrichment of interactor (log2),[6],6.75
same,PRISMA enrichment of interactor (log2),[7],4.81
same,PRISMA enrichment of interactor (log2),[8],8.58
same,PRISMA enrichment of interactor (log2),[9],4.6
same,PRISMA enrichment of interactor (log2),[10],5.07
same,PRISMA enrichment of interactor (log2),[11],6.72
same,PRISMA enrichment of interactor (log2),[12],6.62
same,PRISMA enrichment of interactor (log2),[13],9.27
same,PRISMA enrichment of interactor (log2),[14],4.49
same,PRISMA enrichment of interactor (log2),[15],4.87
same,PRISMA enrichment of interactor (log2),[16],7.08
same,PRISMA enrichment of interactor (log2),[17],7.28
same,PRISMA enrichment of interactor (log2),[18],4.73
same,PRISMA enrichment of interactor (log2),[19],7.44
same,PRISMA enrichment of interactor (log2),[20],6.19
same,PRISMA enrichment of interactor (log2),[21],6.25
same,PRISMA enrichment of interactor (log2),[22],3.75
same,PRISMA enrichment of interactor (log2),[23],6.55
same,PRISMA enrichment of interactor (log2),[24],4.61
same,PRISMA enrichment of interactor (log2),[25],4.59
same,PRISMA enrichment of interactor (log2),[26],7.4
same,PRISMA enrichment of interactor (log2),[27],5.77
same,PRISMA enrichment of interactor (log2),[28],8.56
same,PRISMA enrichment of interactor (log2),[29],5.16
same,PRISMA enrichment of interactor (log2),[30],4.83
same,PRISMA enrichment of interactor (log2),[31],4.78
same,PRISMA enrichment of interactor (log2),[32],4.62
same,PRISMA enrichment of interactor (log2),[33],4.69
same,PRISMA enrichment of interactor (log2),[34],4.18
same,PRISMA enrichment of interactor (log2),[35],4.99
same,PRISMA enrichment of interactor (log2),[36],4.46
same,PRISMA enrichment of interactor (log2),[37],4.15
same,PRISMA enrichment of interactor (log2),[38],4.55
TGLSSFWEMHFASSR,PRISMA enrichment of interactor (log2),[1],5.89
same,PRISMA enrichment of interactor (log2),[39],9.66
same,PRISMA enrichment of interactor (log2),[40],4.61
same,PRISMA enrichment of interactor (log2),[6],6.87
same,PRISMA enrichment of interactor (log2),[41],7.47
same,PRISMA enrichment of interactor (log2),[42],4.89
same,PRISMA enrichment of interactor (log2),[43],4.9
same,PRISMA enrichment of interactor (log2),[44],4.48
same,PRISMA enrichment of interactor (log2),[45],4.89
same,PRISMA enrichment of interactor (log2),[46],5.83
same,PRISMA enrichment of interactor (log2),[47],5.69
same,PRISMA enrichment of interactor (log2),[48],6.66
same,PRISMA enrichment of interactor (log2),[49],6.76
same,PRISMA enrichment of interactor (log2),[50],4.78
same,PRISMA enrichment of interactor (log2),[51],4.74

# 2 entries drawn at random from those above, as already listed:
binder,measurement,setting,value
TGLSSFWEMHFASSR,PRISMA enrichment of interactor (log2),[41],7.47
SPADVAGPGLAMEKA,PRISMA enrichment of interactor (log2),[19],7.44
